Experimental data reported in paper PMC7955032.
No constants are given. Whether binding was seen depends on the method and setting. In cells and extracts the contact can be indirect. Some binding calls cover weakened binding; strength is not graded here.

Target: Flag-tagged wild-type mouse RIPK3 (mouse), Q9QZL0
Assay: co-IP; HEK293T co-transfected with mouse RIPK1 and Flag-tagged mouse RIPK3 (or mutants), lysed 36 h later (25 mM Hepes-NaOH pH 7.5, 150 mM NaCl, 1% Triton, 10% glycerol), anti-Flag magnetic beads overnight at 4 °C, blot with anti-RIPK1
Conditions: remark: other sources report otherwise

- binding: binds
B1: mouse RIPK1 (receptor interacting protein kinase 1), Q60855 1-656 (protein)
chain: MQPDMSLDNIKMASSDLLEKTDLDSGGFGKVSLCYHRSHGFVILKKVYTGPNRAEYNEVLLEEGKMMHRLRHSRVVKLLGIIIEEGNYSLVMEYMEKGNLMHVLKTQIDVPLSLKGRIIVEAIEGMCYLHDKGVIHKDLKPENILVDRDFHIKIADLGVASFKTWSKLTKEKDNKQKEVSSTTKKNNGGTLYYMAPEHLNDINAKPTEKSDVYSFGIVLWAIFAKKEPYENVICTEQFVICIKSGNRPNVEEILEYCPREIISLMERCWQAIPEDRPTFLGIEEEFRPFYLSHFEEYVEEDVASLKKEYPDQSPVLQRMFSLQHDCVPLPPSRSNSEQPGSLHSSQGLQMGPVEESWFSSSPEYPQDENDRSVQAKLQEEASYHAFGIFAEKQTKPQPRQNEAYNREEERKRRVSHDPFAQQRARENIKSAGARGHSDPSTTSRGIAVQQLSWPATQTVWNNGLYNQHGFGTTGTGVWYPPNLSQMYSTYKTPVPETNIPGSTPTMPYFSGPVADDLIKYTIFNSSGIQIGNHNYMDVGLNSQPPNNTCKEESTSRHQAIFDNTTSLTDEHLNPIRENLGRQWKNCARKLGFTESQIDEIDHDYERDGLKEKVYQMLQKWLMREGTKGATVGKLAQALHQCCRIDLLNHLIRASQS
